## Primary screen of a compound library

Sequences of proteins named here, by UniProt entry; tags and fusion partners are left off. Residues count along the entry.
UniProt Q4DA54, 1-478: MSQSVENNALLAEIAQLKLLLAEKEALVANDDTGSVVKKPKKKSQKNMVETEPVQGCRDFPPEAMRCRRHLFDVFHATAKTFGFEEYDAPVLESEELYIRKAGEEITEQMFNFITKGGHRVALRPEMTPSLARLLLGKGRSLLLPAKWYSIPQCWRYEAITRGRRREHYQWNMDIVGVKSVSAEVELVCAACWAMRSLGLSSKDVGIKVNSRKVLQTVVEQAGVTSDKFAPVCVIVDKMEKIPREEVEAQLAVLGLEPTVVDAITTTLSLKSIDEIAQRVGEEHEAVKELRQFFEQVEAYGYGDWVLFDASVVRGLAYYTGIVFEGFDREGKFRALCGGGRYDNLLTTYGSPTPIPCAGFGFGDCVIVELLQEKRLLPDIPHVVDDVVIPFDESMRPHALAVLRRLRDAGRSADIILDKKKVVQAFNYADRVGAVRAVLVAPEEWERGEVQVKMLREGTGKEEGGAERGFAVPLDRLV

Measurements from “University of Dundee, Small-Polar-MMV Screening Library” (2021), ChEMBL document CHEMBL3988442.

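Histidine-tRNA ligase, Trypanosoma cruzi CL Brener (UniProt Q4DA54). Enzyme assay of histidyl-tRNA synthetase; the read-out is not stated. Tested at 30 µM. Direction is inferred from retests: higher values go with stronger inhibition. About 69,000 compounds were tested under these conditions; 0.045% (about 31) showed 50% or more at least once.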

Results are given as percent effect.
How 0% and 100% were set is not recorded. Most values in the screen are low, and negative values occur.
The compounds are a random part of those screened.

compound	Percent Effect
CCCc1ncc(C(=O)N2CCOC(c3nc(C)n[nH]3)C2)s1 (stereo not given)	-53.01
Cc1ncnc(N2CCCN(c3nc4ccccc4s3)CC2)c1C	10.39
O=C1COc2ccc(C(=O)NS(=O)(=O)c3cc(F)ccc3F)cc2N1	1.156
Cc1oc(-c2cccc(F)c2F)nc1CN(C)CCC(C)(C)O	3.96
O=C(CN(Cc1cccnc1)CC1CCCO1)Nc1ccc(F)cc1 (stereo not given)	2.479
CCC[C@H]1CN(Cc2cncn2C)C[C@@H]1NC(=O)C1(COC)CCC1	1.299
CC(=O)N[C@@H]1CN(C(=O)c2cc(C)oc2C)C[C@H]1c1ccc(C)o1	8.861
COCCn1ccnc1CN1CCc2[nH]cnc2C1c1cccc(O)c1 (stereo not given)	2.97
Cc1ccccc1-n1cc(-c2ccnc(N3CCCC(CN)C3)n2)cn1 (stereo not given)	11.44
CC(=O)N1CCN(C(=O)NCCCc2cn[nH]c2C)CC1	1.571
CCN1CCN(CCC(=O)NC2CC(c3cccc(Cl)c3)C2)CC1 (stereo not given)	10.5
CS(=O)(=O)N1Cc2ccccc2CC2(CCN(Cc3ccccc3)C2)C1 (stereo not given)	14.79
Cc1cnn(CCC(=O)N(CC2CN(C)CCO2)c2nccs2)c1 (stereo not given)	1.98
COC(=O)CC1CCN(C(=O)c2ccc(C)cc2)CC1	3.96
Cc1nc(S(=O)(=O)CCn2cccn2)n(C2CCCC2)c1C	6.404
Cc1noc(-c2ccc(N(C)Cc3ccncn3)nc2)n1	0
Cc1cc(N2CCCC2c2cccnc2)nc(C)n1 (stereo not given)	5.882
O=C(NCC(O)C1CC1)Nc1cnn(Cc2ccccc2)c1 (stereo not given)	10
CC(NC(=O)c1ccnn1C)c1ccc(OCC2CC2)c(F)c1 (stereo not given)	3.333
CCOCCCNC(=O)c1nn(CC)cc1Br	4.348
COc1cccc(S(=O)(=O)NC(=O)C2CC(c3ccccc3)=NO2)c1 (stereo not given)	5.699
Cc1ccccc1SCC(=O)Nn1cnnc1	6.667
CCn1cncc1Cn1ncc2ccccc2c1=O	8.458
COCCN(C)C[C@@H]1CCC[C@@H]2CN(c3cc(OC)ncn3)C[C@@H]21	2.732
O=C(Nc1cc(F)ccc1OCC1CCCO1)c1ccoc1 (stereo not given)	-1.681
CC(=O)NCC1CCN(C(=O)NCCOc2ccc3c(c2)CCC3)CC1	4.985
CC1COC2(CCN(C(=O)Cc3ccncc3)CC2)C1 (stereo not given)	8.543
O=C(CCc1ccco1)Nc1ncn(CC(=O)N2CCCCCC2)n1	6.806
Cc1cccc(CNC[C@H]2COCc3nc4cccnc4n32)n1	3.483
O=C(N[C@@H]1CCC[C@@H](N2CCCC2)[C@@H]1O)c1cnn2cccnc12	0.7463
CCc1cnc(CN(C(C)=O)C2CCN(Cc3nccn3C)C2)o1 (stereo not given)	2.624
N[C@H]1CN(C(=O)c2ccc(CO)cc2)C[C@@H]1C1CC1	3.012
CCC(=O)NCC(=O)Nc1ncc(I)cc1C	0
Cc1cccc(OC2CCN(C(=O)Cn3ccc4ccccc43)CC2)n1	5.155
COc1ncnc2c1CCN(Cc1cccc(C)n1)CC2	8.04
CCC1CN(C(=O)c2ccc(=O)[nH]c2)CCC(=O)N1Cc1ccccc1 (stereo not given)	6.504
CC(=O)N1Cc2ccccc2OC2(CCN(C(=O)C3CC3)CC2)C1	1.128
O=C(CC1CCCC1)Nc1ccc(-n2cc(Cl)cn2)nc1	-4.094
CC(CO)Nc1ccc(-c2nc(Cc3ccc(F)cc3)no2)cn1 (stereo not given)	3.922
CS(=O)(=O)N1CCN(CC(O)COc2ccc(F)cc2)CC1 (stereo not given)	1.132
CCn1c(C2CCCN(Cc3ccnc4ccccc34)C2)nn(C)c1=O (stereo not given)	0
CN(C)Cc1ccccc1NC(=O)c1ccc(C#N)cc1	-19.75
Cn1cc(-c2c(C#N)c(N)nc3c2CCc2[nH]ccc2-3)cc1C#N	17.84
Cc1ccc(CCCC(=O)N(C)CCN2CCOCC2)cc1	-0.8333
Cc1ccc(NC(=O)N2CCCC2)c(OCC2CCCO2)c1 (stereo not given)	0
Cc1cccc(CN2C[C@H](NS(C)(=O)=O)[C@@H]3OCCC[C@@H]32)n1	4.865
N#Cc1ccc(CNc2cnn(CCN3CCOCC3)c2)cc1	5.288
Cc1nc(CNc2nc3c(s2)c(C)nn3C)cs1	5.435
O=C1CN(C(=O)CCn2c(C(F)(F)F)cc3cccnc32)CCN1	0.7463
O=C(O)[C@H]1CN(Cc2ccccc2)C[C@@H]1C(=O)c1ccccc1	5.085
CCCNC(=O)c1cc(OC)c(OC)cc1N(C)S(C)(=O)=O	0
Cc1noc(C2(NC(=O)c3cccnc3O)CCCCC2)n1	-0.4878
COC(=O)CCNC(=O)c1nnn(-c2ccccc2)c1C(F)(F)F	6.329
Cc1cccn2cc(CN3CCCC(c4ccn[nH]4)C3)nc12 (stereo not given)	11.69
COCCC(=O)N1CCOCC(Cc2ccc3c(ccn3C)c2)C1 (stereo not given)	9.848
CN(CC(N)=O)C(=O)c1cc(Cl)c(Cl)n1C	4.972
O=C(NCCC1CCCCO1)c1cc(COc2cncc(Cl)c2)on1 (stereo not given)	-1.734
CC(C)Oc1cc(N2CCC(C(N)=O)CC2)nc(N)n1	4.233
CN1CC(=O)N(c2ccsc2)CC12CCN(C(=O)CC1CCCC1)C2 (stereo not given)	10.92
COc1cc(CNC2CCCN(c3cccnn3)C2)cc2c1OCO2 (stereo not given)	8.434
CCc1nc(C)c(C(=O)NCCN2CCCC2)s1	5.983
CC(C)c1nc(C2CCCN2C(=O)c2ccc3nncn3c2)no1 (stereo not given)	5.319
O=S(=O)(C1CC1)N1CCc2ncnc(-c3ccsc3)c2CC1	6.952
CC(C)Oc1ccccc1CNC(=O)N(C)CC(F)F	6.667
Cc1nc(C)c2c(n1)CCN(Cc1ccco1)CC2	4.95
CCCNC(=O)c1cccc2ncccc12	2.299
CCN(Cc1ccncc1)C(=O)c1cn(CCC2CCCCC2)nn1	7.229
CS(=O)(=O)CCn1ccc(NC(=O)Cc2ccccc2Cl)n1	8.808
CCN(CC)CC1CN(CCc2ccccc2)Cc2nccn2C1 (stereo not given)	1.653
c1coc(CN2CCn3c(nc4ccccc43)C2)c1	4.911
Cc1cccc(-c2ncc(CNC(C)Cc3ccncc3)cn2)c1 (stereo not given)	7.792
COc1c(CNCc2ccc(OCC(N)=O)cc2)c(C)nn1C	5.65
Cc1sc(Br)cc1S(=O)(=O)NCc1ccccn1	3.59
CC(C)=CCC1(C(=O)O)CCCN(c2cc(N)ncn2)C1 (stereo not given)	7.143

The last 6 entries again:

{"compound": "CCN(CC)CC1CN(CCc2ccccc2)Cc2nccn2C1", "stereo": "stereo not given", "Percent Effect": 1.653}
{"compound": "c1coc(CN2CCn3c(nc4ccccc43)C2)c1", "Percent Effect": 4.911}
{"compound": "Cc1cccc(-c2ncc(CNC(C)Cc3ccncc3)cn2)c1", "stereo": "stereo not given", "Percent Effect": 7.792}
{"compound": "COc1c(CNCc2ccc(OCC(N)=O)cc2)c(C)nn1C", "Percent Effect": 5.65}
{"compound": "Cc1sc(Br)cc1S(=O)(=O)NCc1ccccn1", "Percent Effect": 3.59}
{"compound": "CC(C)=CCC1(C(=O)O)CCCN(c2cc(N)ncn2)C1", "stereo": "stereo not given", "Percent Effect": 7.143}